Assay results: PubChem BioAssay AID493014 (National Center for Advancing Translational Sciences (NCATS), 2011)
The other results are listed elsewhere or left out. The main result of the screen is listed elsewhere. These columns were measured beside it and carry no call. Most of these compounds were active or inconclusive in the main read-out, so they are no random draw. The note in brackets gives the kind of curve behind each potency; many fits are weak. Square brackets hold non-standard residues; d marks the D form. Peptide text beside a SMILES is read from it. * marks the point of attachment. Tos = Cc1ccc(S(=O)(=O)*)cc1

Experiment: qHTS Assay to Find Inhibitors of Chronic Active B-Cell Receptor Signaling
Details: ABC-DLBCL IkBa-CBG/CBR reporter, luminescence ratio (green luciferase fused to IkBa over red control in TMD8 lymphoma cells), 4 h
Summary of the method: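 Concentration-response series (up to 46 uM) were applied to TMD8 dual-reporter cells for 4 h at 37C with doxycycline. Green/red ratio, after filter-overlap correction, defined %Activity; red signal alone was normalised to basal cells and zero luminescence.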

[1] = measured here: CBR red luminescence, cell number
[2] = measured here: IkBa-CBG green luminescence

Structure (SMILES) | AC50 [1] | AC50 [2]
O=C(Nc1ccc(N2CCN(C(=O)c3ccco3)CC2)cc1)c1ccco1 | 35.5 µM [rising, single point] | –
COCCNC(=O)c1onc(CSc2ccc(Cl)cc2)c1C(=O)O | 22.4 µM [falling, single point] | –
CCCCn1nnc(N(C(=O)c2cccs2)C(=O)c2cccs2)n1 | 11.2 µM [falling, partial curve] | –
Nc1nn(-c2ccccc2)c(N)c1N=Nc1ccccc1F | 5.17 µM [falling, partial curve] | –
Cc1cc(O)cc2c1C(c1ccc(F)cc1)CC1(CC(C)(C)NC(=S)N1)O2 (stereo unspecified) | 11.2 µM [falling, partial curve, poor fit] | 20 µM [rising, partial curve, poor fit]
CCSc1ccccc1C(=O)N1CCN(c2ccccc2F)CC1 | 29.1 µM [rising, single point] | –
Cc1ccc(-n2c([S-])c(C(=O)NC(C)c3ccccc3)[n+]3ccccc23)cc1 (stereo unspecified) | 22.4 µM [rising, single point] | –
Nc1c2c(nc3ccccc13)CCCC2 | 25.9 µM [falling, partial curve, poor fit] | –
O=C(CCc1ccccc1)Nc1nnc(-c2cccs2)o1 | 0.517 µM [falling, full curve, poor fit] | –
C=CCn1c(SCC(=O)c2ccccc2)nnc1-c1ccc2c(c1)OCO2 | 29.1 µM [rising, single point] | –
O=C(NC1CCCc2c1cnn2-c1ccc(F)cc1F)c1cnccn1 (stereo unspecified) | 35.5 µM [rising, single point] | –
Clc1cccc(/C=N/Nc2nnc(Cl)c3ccccc23)c1 | 0.447 µM [rising, full curve, poor fit] | –
O=C(NC1CCCC1)c1c(O)nc2sccn2c1=O | 18.4 µM [falling, single point] | –
COc1ccc(NC(=O)c2cc3ccccc3cc2OC)cc1 | 0.562 µM [rising, full curve] | –
Cc1ccc(S(=O)(=O)N[C@@H](Cc2ccccc2)C(=O)N2CCC[C@@H]2C(=O)O)cc1 (Tos-Phe-[dP]-OH) | 6.31 µM [rising, partial curve, poor fit] | –
COC(=O)/C=C/C(=O)N1CCN(c2ccccc2C)CC1 | 29.1 µM [falling, single point] | –
COc1cc(NC(=O)CSc2nnc3n2C(C)(C)Cc2ccccc2-3)cc(OC)c1 | 35.5 µM [falling, single point] | –
CCOc1ccccc1OCCCNCc1ccccc1 | 28.2 µM [rising, partial curve, poor fit] | –
CN1C(=O)CC(N2CCN(C(=O)c3ccccc3)CC2)C1=O (stereo unspecified) | 9.2 µM [rising, partial curve] | –
CCC(=O)Nc1cccc(NC(=S)NC(=O)c2cccs2)c1 | 9.2 µM [falling, partial curve] | –
CC(C)Oc1ccc(OCCn2c(=S)[nH]c3c(N)ncnc32)cc1 | 12.6 µM [rising, partial curve] | –
Cc1ccc2[nH]c3c(=O)n4c(nc3c2c1)SCC4 | 0.112 µM [falling, full curve, poor fit] | –

Structure (SMILES) | AC50 [1] | AC50 [2]
Cc1cc(C(=O)Nc2ccccc2Cl)n(-c2ccccc2)n1 | 11.2 µM [falling, single point] | –
O=C(CCl)N1CCN(S(=O)(=O)c2ccc3ccccc3c2)CC1 | 11.2 µM [falling, partial curve, poor fit] | –
Clc1ccc(-c2csc(=Nc3cccnc3)n2CCCn2ccnc2)cc1Cl | 1.03 µM [rising, full curve, poor fit] | –
COc1ccc2c(c1)cc1n2CCN2CCCN=C12 | 20.6 µM [rising, partial curve, poor fit] | –
CCOc1cc(C(=O)OC(C)C(=O)Nc2ccc(S(N)(=O)=O)cc2)ccc1OCC(=O)N1CCOCC1 (stereo unspecified) | 7.31 µM [rising, partial curve, poor fit] | –
Cc1ccc(N(CC(=O)NCc2ccco2)S(=O)(=O)c2ccccc2)cc1 | 35.5 µM [falling, single point] | –
CCOC(=O)[C@H]1[C@H]2COc3ccc(C)cc3[C@@H]2N2C(=O)c3ccc(C)cc3NC(=O)[C@@]12C | 16.4 µM [falling, single point] | –
Cc1cc(C)nc(NNC2=CC(=O)CC(C)(C)C2)n1 | 7.94 µM [falling, partial curve] | –
C[C@@H](C(=O)NCCc1c[nH]c2ccccc12)[C@@H]1C[C@@]1(C)[C@@H](NC(=O)OCc1ccccc1)c1ccccc1 | 16.4 µM [falling, single point] | –
COC(=O)Nc1ccc(S(=O)(=O)N2CCCC(C(=O)Nc3cccc4c3OCCO4)C2)cc1 (stereo unspecified) | 0.731 µM [rising, full curve, poor fit] | –
Cc1ccc(Nc2c([N+](=O)[O-])c(=O)n(C)c3ccccc23)cc1 | 2.82 µM [falling, partial curve, poor fit] | –
CN(C)S(=O)(=O)c1cc(NC(=O)c2cc(=O)c3ccccc3o2)ccc1Cl | 22.4 µM [falling, single point] | –
CCOC(=O)c1c(C2CC2)csc1NC(=O)COC(=O)c1ccc[n+]([O-])c1 | 32.6 µM [falling, partial curve, poor fit] | –
C=CCn1c(-c2cc(OC)c(OC)c(OC)c2)n[nH]c1=S | 29.1 µM [rising, single point] | –
CC1CCC2(CC1)NC(=O)N(CC(=O)c1ccc[nH]1)C2=O (stereo unspecified) | 0.517 µM [falling, full curve] | –
COc1cc2cc(C(=O)O)n(C)c2c(OC)c1OC | 17.8 µM [rising, partial curve, poor fit] | –
Cc1noc(C)c1COc1cccc(C(=O)Nc2ccccc2)c1 | 8.2 µM [rising, partial curve, poor fit] | –
CCOC(=O)CN(C(=O)COc1ccc2c(C)cc(=O)oc2c1)c1ccc(OCC)cc1 | 35.5 µM [rising, partial curve, poor fit] | –
CSc1ccc(C(=O)N2CCC(n3nccc3NC(=O)C3CC3)CC2)cc1 | 31.6 µM [rising, single point] | –
Fc1c(F)c(F)c(CSc2nc3ccccc3[nH]2)c(F)c1F | 3.66 µM [falling, partial curve, poor fit] | –
S=c1[nH]ncn2c1cc1oc3ccccc3c12 | 0.631 µM [rising, partial curve, poor fit] | –
CNC(=S)N1N=C2c3ccccc3CCC2C1c1ccccc1Cl (stereo unspecified) | 2.82 µM [falling, partial curve, poor fit] | –

Quoted at random: 2 entries already listed.
Structure (SMILES) | AC50 [1] | AC50 [2]
COC(=O)Nc1ccc(S(=O)(=O)N2CCCC(C(=O)Nc3cccc4c3OCCO4)C2)cc1 (stereo unspecified) | 0.731 µM [rising, full curve, poor fit] | –
CCOC(=O)CN(C(=O)COc1ccc2c(C)cc(=O)oc2c1)c1ccc(OCC)cc1 | 35.5 µM [rising, partial curve, poor fit] | –

Later entries:

Structure (SMILES) | AC50 [1] | AC50 [2]
COC(=O)C(CCSC)NC(=O)c1cc2c(n(-c3ccccc3)c1=O)CCCC2=O (stereo unspecified) | 22.4 µM [falling, partial curve] | –
COc1ccc(CNC(=O)NCCc2c[nH]c3ccccc23)cc1 | 35.5 µM [falling, single point] | –
COCCN(Cc1cc2cc3c(cc2nc1Cl)OCO3)C(=O)c1ccc(C)cc1 | 8.91 µM [falling, partial curve] | –
COc1ccc(C(=O)CCC(=O)Nc2ccccc2C)cc1 | 20 µM [falling, partial curve, poor fit] | –
Nc1ccc2cn[nH]c2c1 | 17.8 µM [falling, single point] | –
Cn1c(=O)c2c(nc(SCCN3CCOCC3)n2Cc2ccccc2)n(C)c1=O | 29.1 µM [falling, partial curve, poor fit] | –
COc1ccc(/C=N/NC(=O)c2nn(C)cc2Br)cc1CSCc1ccco1 | 17.8 µM [falling, partial curve, poor fit] | –
CCOc1ccccc1NC(=O)Nc1ccc(OC)nc1 | 1 µM [falling, full curve, poor fit] | –
NC(=O)c1ccccc1NC(=S)NC(=O)CCc1ccccc1 | 20.6 µM [rising, partial curve] | 20.6 µM [falling, single point]
CN(C)S(=O)(=O)N1CCC(Oc2cccc(C(=O)NCCC3=CCCCC3)c2)CC1 | 2.82 µM [falling, full curve] | –
CC(C)C[C@H](NC(=O)c1[nH]cnc1C(=O)N[C@@H](C)c1ccccc1)C(=O)OC(C)(C)C | 35.5 µM [falling, single point] | –
COc1cc(SC#N)ccc1N=Cc1c(C)[nH]n(-c2ccc(Cl)cc2)c1=O | 0.316 µM [rising, full curve, poor fit] | –
Cc1ncoc1C(=O)Nc1ncc([N+](=O)[O-])s1 | 8.91 µM [falling, partial curve, poor fit] | –
Cc1onc(-c2ccccc2Cl)c1C(=O)Nc1nnc(-c2ccc(F)cc2)s1 | 2.59 µM [rising, partial curve] | –
CCOc1ccccc1OCCCC(=O)Nc1cccc(-n2cnnn2)c1C | 9.2 µM [rising, partial curve, poor fit] | –
Cc1ccc(NC(=O)c2ccc(NS(=O)(=O)/C=C/c3ccccc3)cc2)nc1 | 35.5 µM [falling, single point] | –
O=C(Nc1ccc(Cl)cc1)OCc1cn(-c2ccccc2)nn1 | 5.01 µM [rising, partial curve, poor fit] | –
COc1ccccc1-n1nnnc1SCc1cc2c(cc1Br)OCO2 | 29.1 µM [rising, single point] | –
CCc1ccc(NC(=O)c2ccc(S(=O)(=O)NCc3cccnc3)cc2)cc1 | 10 µM [rising, partial curve] | –
COc1ccc([C@]2(C(C)C)ON(c3ccccc3C(F)(F)F)C2=O)cc1 | 23.1 µM [falling, single point] | –

Of the compounds above, 2 contain bromine:
Structure (SMILES) | AC50 [1] | AC50 [2]
COc1ccc(/C=N/NC(=O)c2nn(C)cc2Br)cc1CSCc1ccco1 | 17.8 µM [falling, partial curve, poor fit] | –
COc1ccccc1-n1nnnc1SCc1cc2c(cc1Br)OCO2 | 29.1 µM [rising, single point] | –
